Assay results: the supplement of paper PMC6411743
± gives the standard deviation of the averaged measurements. Only a part is listed here, and it is no random draw.

Amino acid sequences for entries named in this document (tags omitted). A change or cut given only in a name is not applied to a line headed by its entry.
UniProt Q00266: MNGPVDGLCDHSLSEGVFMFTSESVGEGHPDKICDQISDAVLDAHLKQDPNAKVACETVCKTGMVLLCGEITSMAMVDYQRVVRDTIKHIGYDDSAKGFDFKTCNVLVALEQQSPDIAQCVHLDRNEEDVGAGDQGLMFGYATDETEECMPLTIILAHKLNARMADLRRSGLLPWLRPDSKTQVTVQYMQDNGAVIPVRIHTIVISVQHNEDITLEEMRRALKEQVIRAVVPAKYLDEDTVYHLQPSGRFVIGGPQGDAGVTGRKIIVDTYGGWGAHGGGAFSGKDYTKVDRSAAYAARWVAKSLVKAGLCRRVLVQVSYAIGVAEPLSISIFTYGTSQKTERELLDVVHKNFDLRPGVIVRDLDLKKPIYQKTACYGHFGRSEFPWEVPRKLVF
UniProt P86790: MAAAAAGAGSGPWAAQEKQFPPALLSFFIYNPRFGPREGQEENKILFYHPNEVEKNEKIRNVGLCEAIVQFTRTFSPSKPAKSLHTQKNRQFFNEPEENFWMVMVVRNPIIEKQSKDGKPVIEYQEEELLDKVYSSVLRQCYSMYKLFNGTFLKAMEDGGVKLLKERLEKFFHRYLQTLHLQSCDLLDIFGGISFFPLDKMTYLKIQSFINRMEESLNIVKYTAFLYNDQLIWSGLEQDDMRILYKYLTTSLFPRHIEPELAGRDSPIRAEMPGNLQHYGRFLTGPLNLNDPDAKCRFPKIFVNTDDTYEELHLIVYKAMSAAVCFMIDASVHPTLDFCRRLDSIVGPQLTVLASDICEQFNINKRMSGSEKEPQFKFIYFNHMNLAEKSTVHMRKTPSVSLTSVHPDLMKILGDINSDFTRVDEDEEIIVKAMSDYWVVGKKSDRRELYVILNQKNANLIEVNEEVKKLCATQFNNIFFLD
UniProt P86791: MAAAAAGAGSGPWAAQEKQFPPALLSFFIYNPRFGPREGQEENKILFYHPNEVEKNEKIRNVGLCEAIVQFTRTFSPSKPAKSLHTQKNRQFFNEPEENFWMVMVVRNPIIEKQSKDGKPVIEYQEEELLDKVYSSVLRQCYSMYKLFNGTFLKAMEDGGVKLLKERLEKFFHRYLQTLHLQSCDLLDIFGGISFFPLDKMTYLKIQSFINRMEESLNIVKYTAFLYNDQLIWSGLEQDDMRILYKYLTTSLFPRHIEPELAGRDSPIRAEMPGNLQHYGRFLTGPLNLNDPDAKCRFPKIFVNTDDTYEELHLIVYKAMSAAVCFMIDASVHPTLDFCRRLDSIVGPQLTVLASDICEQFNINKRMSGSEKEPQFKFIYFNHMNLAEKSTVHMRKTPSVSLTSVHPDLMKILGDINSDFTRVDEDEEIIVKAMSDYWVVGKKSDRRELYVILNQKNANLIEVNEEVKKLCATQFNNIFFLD
UniProt Q00978: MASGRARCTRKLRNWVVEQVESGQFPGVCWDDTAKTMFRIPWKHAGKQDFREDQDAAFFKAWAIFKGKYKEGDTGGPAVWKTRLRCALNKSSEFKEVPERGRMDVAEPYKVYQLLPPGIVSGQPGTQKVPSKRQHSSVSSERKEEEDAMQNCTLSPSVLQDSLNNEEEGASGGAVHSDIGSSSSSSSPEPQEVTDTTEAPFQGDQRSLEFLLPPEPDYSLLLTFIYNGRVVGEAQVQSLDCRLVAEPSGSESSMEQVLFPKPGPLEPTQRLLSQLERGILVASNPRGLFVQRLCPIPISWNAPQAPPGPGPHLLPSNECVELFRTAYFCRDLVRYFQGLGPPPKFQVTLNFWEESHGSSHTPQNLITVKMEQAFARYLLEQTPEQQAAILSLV
UniProt P56377: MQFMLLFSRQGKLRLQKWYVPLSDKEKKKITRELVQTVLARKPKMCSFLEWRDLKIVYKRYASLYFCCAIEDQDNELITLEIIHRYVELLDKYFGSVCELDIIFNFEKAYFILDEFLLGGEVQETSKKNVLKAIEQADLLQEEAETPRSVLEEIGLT
UniProt P84103: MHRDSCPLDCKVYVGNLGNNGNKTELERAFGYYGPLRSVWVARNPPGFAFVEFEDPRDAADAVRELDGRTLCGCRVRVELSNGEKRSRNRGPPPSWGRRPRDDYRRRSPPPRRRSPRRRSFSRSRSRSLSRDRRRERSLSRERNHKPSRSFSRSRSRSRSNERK
UniProt P61758, whole entry: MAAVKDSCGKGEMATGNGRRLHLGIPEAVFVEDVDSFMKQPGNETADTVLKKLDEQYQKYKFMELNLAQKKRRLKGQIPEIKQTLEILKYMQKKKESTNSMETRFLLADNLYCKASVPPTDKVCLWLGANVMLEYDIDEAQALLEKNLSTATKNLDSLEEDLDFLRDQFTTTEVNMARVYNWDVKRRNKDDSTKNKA
UniProt P61970, whole entry: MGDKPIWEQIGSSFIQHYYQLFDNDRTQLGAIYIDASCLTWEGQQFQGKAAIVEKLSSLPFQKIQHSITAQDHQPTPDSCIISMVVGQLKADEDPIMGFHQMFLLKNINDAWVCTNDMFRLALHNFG
UniProt P84090, whole entry, looked up: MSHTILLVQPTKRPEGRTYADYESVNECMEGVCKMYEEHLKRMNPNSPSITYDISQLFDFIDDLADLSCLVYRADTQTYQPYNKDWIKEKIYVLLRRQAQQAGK
UniProt P85037: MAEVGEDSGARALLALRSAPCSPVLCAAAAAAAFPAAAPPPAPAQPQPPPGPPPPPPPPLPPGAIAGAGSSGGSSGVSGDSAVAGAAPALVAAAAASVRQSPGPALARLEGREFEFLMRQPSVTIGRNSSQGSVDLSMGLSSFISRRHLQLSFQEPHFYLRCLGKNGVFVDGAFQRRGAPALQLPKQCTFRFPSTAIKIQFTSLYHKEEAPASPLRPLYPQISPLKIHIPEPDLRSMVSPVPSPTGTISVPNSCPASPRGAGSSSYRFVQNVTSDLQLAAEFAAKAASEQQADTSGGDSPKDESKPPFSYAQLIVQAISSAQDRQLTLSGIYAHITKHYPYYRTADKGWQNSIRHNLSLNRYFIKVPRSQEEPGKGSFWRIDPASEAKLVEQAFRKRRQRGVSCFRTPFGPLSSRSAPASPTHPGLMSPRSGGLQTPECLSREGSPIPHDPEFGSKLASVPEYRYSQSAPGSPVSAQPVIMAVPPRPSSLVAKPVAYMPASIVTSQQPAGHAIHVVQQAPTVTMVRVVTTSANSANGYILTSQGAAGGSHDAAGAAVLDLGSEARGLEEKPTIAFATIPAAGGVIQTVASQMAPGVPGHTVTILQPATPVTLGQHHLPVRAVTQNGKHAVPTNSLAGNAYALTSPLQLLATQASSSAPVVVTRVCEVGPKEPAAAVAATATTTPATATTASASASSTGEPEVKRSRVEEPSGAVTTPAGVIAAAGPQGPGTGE
UniProt P61019: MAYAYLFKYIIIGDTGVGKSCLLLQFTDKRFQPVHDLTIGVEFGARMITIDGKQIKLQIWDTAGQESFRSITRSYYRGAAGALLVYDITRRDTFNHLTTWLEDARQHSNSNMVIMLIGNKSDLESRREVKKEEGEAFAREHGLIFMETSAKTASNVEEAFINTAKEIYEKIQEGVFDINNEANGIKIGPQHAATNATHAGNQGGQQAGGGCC
UniProt P61981: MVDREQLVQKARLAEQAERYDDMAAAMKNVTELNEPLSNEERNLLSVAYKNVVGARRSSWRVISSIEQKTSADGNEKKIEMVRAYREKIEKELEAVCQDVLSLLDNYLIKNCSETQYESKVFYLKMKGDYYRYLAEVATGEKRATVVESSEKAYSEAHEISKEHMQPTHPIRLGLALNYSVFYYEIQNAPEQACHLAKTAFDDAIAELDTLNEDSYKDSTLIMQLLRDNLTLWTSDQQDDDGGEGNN
UniProt P61088: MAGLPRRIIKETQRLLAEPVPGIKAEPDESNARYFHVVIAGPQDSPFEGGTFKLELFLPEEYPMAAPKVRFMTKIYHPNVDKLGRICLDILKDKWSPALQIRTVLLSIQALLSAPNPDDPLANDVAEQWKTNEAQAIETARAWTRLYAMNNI
UniProt Q06546: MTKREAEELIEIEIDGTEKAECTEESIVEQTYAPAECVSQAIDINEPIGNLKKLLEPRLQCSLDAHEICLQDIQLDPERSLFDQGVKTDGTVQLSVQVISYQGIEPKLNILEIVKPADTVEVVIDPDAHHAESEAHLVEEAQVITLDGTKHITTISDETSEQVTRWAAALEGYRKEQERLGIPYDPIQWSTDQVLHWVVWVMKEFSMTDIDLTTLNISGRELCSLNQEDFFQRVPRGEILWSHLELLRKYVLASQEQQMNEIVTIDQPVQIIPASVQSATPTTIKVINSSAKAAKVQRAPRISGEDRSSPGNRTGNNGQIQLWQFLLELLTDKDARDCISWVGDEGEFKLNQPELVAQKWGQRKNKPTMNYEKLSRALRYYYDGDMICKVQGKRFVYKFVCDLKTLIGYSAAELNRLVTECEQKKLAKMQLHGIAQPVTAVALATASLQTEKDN
UniProt P56159: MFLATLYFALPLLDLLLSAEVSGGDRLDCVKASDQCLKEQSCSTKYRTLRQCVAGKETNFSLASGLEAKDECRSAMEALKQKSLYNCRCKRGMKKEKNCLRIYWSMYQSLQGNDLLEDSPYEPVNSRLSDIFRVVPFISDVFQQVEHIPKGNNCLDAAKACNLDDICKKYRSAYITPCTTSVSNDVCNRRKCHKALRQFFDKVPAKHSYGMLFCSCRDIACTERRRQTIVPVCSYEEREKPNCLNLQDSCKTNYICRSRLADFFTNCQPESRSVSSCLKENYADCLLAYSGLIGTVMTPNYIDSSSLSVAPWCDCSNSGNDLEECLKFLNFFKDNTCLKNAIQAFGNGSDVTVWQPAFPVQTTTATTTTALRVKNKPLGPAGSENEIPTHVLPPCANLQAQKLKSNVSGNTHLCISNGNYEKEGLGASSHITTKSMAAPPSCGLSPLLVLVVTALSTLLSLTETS
UniProt P67870, whole entry: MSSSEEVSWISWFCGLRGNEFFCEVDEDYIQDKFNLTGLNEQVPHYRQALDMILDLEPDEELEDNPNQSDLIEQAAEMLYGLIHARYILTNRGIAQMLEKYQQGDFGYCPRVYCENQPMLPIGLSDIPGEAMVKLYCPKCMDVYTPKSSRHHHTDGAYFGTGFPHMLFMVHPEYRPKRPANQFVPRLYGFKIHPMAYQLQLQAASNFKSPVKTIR
UniProt P63010: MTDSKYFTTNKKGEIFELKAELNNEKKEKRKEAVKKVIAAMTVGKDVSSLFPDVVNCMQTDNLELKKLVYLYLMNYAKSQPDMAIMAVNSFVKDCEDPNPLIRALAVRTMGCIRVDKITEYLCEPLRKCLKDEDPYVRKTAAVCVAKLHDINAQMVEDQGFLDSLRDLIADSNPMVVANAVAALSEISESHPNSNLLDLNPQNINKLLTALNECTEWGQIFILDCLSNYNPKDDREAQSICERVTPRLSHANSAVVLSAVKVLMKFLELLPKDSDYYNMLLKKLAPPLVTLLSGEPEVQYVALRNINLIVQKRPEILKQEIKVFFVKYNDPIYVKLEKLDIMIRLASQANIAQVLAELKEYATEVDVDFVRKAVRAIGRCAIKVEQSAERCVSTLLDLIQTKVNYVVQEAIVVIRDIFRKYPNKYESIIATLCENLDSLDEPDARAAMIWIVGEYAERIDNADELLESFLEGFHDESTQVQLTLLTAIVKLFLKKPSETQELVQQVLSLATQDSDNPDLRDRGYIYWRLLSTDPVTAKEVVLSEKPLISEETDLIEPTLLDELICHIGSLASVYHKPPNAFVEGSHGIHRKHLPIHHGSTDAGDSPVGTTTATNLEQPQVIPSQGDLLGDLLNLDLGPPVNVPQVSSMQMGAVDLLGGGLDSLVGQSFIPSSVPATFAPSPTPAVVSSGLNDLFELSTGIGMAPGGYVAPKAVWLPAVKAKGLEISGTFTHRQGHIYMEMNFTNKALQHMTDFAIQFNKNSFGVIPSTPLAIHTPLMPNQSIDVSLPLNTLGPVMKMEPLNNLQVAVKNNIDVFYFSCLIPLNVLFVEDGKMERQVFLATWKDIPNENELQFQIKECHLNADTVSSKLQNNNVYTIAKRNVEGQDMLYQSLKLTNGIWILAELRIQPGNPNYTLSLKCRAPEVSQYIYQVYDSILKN
UniProt P61599, whole entry: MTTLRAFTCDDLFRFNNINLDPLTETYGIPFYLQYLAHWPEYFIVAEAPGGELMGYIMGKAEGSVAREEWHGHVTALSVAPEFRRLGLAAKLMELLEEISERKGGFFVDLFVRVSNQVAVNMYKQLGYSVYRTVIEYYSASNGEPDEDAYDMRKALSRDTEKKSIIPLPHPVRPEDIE
UniProt Q06609, whole entry: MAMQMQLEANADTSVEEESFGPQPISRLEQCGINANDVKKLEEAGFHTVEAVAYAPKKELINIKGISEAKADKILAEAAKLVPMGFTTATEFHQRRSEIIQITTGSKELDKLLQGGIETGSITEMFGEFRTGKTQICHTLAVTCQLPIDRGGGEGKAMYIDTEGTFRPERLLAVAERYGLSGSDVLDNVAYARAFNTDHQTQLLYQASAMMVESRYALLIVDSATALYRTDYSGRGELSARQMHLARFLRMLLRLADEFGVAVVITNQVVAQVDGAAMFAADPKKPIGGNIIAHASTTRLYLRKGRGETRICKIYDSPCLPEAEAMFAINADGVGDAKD
UniProt P62306, whole entry, looked up: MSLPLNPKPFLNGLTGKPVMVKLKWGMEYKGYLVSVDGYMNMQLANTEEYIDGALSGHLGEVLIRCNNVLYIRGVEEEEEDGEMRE

Compound: Nc1ncnc2c1ncn2[C@@H]1O[C@H](COP(=O)(O)OP(=O)(O)NP(=O)(O)O)[C@@H](O)[C@H]1O [adenylyl imidodiphosphate]
Assay: NP40-soluble protein abundance relative to vehicle (solubility fold change) (ratio); higher = more soluble protein in presence of AMP-PNP
Procedure, shortened: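 Values are fold changes against the detergent-processed vehicle, based on vsn-normalised intensities. Jurkat crude lysate was treated at eight concentrations from 0.1 to 10 mM (10 min at room temperature, then 3 min at 37 °C), solubilised with 0.8% NP40 and benzonase, ultracentrifuged and analysed by TMT-labelled LC-MS/MS over three independent experiments.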

| Target | NP40-soluble protein abundance (concentration: 1mM) | NP40-soluble protein abundance (concentration: 2mM) | NP40-soluble protein abundance (concentration: 4mM) | NP40-soluble protein abundance (concentration: 6mM) | NP40-soluble protein abundance (concentration: 8mM) | NP40-soluble protein abundance (concentration: 10mM) |
| --- | --- | --- | --- | --- | --- | --- |
| UniProt P62753 | 0.975 ± 0.059 | 0.946 ± 0.032 | 0.925 ± 0.11 | 0.925 ± 0.052 | 0.883 ± 0.073 | 0.956 ± 0.14 |
| UniProt Q00266 and related entries | 1.04 ± 0.071 | 0.993 ± 0.026 | 1 ± 0.029 | 0.978 ± 0.024 | 0.994 ± 0.039 | 0.946 ± 0.032 |
| MRPS15 (UniProt P82914) | 0.976 ± 0.027 | 1.01 ± 0.042 | 0.968 ± 0.085 | 0.995 ± 0.091 | 0.976 ± 0.12 | 0.983 ± 0.14 |
| P86790 and related entries (UniProt P86791+P86790) | 0.998 ± 0.019 | 0.936 ± 0.053 | 0.991 ± 0.042 | 0.94 ± 0.037 | 0.9407 ± 0.0085 | 0.911 ± 0.016 |
| UniProt Q00978 and related entries | 0.995 ± 0.013 | 1 ± 0.019 | 0.981 ± 0.019 | 0.99 ± 0.02 | 0.996 ± 0.034 | 0.998 ± 0.029 |
| UniProt P62241 and related entries | 0.942 ± 0.068 | 0.883 ± 0.062 | 0.871 ± 0.12 | 0.873 ± 0.12 | 0.778 ± 0.06 | 0.836 ± 0.14 |
| UniProt Q02086 and related entries | 1.02 ± 0.032 | 1.04 ± 0.067 | 1.04 ± 0.05 | 1.01 ± 0.047 | 1.04 ± 0.046 | 1.01 ± 0.022 |
| AP1S2 (UniProt P56377) | 0.994 ± 0.054 | 0.93 ± 0.093 | 0.979 ± 0.073 | 0.961 ± 0.07 | 0.977 ± 0.061 | 0.922 ± 0.073 |
| UniProt P84103 and related entries | 1.02 ± 0.034 | 1.09 ± 0.12 | 1.07 ± 0.028 | 1.11 ± 0.052 | 1.1 ± 0.095 | 1.15 ± 0.12 |
| VBP1 (UniProt P61758) | 0.912 ± 0.051 | 0.962 ± 0.057 | 0.885 ± 0.032 | 0.89 ± 0.048 | 0.882 ± 0.028 | 0.866 ± 0.029 |
| UniProt P61970 | 0.9917 ± 0.0085 | 0.956 ± 0.021 | 0.96 ± 0.025 | 0.993 ± 0.034 | 0.996 ± 0.046 | 0.946 ± 0.046 |
| UniProt P84090 | 1 ± 0.027 | 1.05 ± 0.014 | 1.05 ± 0.029 | 1.11 ± 0.023 | 1.15 ± 0.066 | 1.18 ± 0.065 |
| FOXK1 (UniProt P85037) | 0.999 ± 0.044 | 1.06 ± 0.086 | 1.01 ± 0.014 | 0.987 ± 0.015 | 0.9378 ± 0.0057 | 1.01 ± 0.02 |
| HMGCS1 (UniProt Q01581) | 0.976 ± 0.018 | 0.944 ± 0.025 | 0.954 ± 0.027 | 0.95 ± 0.019 | 0.942 ± 0.025 | 0.936 ± 0.019 |
| UniProt P62917 | 1.04 ± 0.076 | 1.03 ± 0.043 | 0.99 ± 0.078 | 0.975 ± 0.075 | 0.835 ± 0.077 | 1.06 ± 0.16 |
| RAB2A (UniProt P61019) | 1 ± 0.011 | 0.926 ± 0.11 | 0.957 ± 0.013 | 0.993 ± 0.041 | 1.01 ± 0.051 | 0.962 ± 0.053 |
| UniProt P63272 | 0.973 ± 0.013 | 0.982 ± 0.029 | 0.981 ± 0.029 | 1.02 ± 0.037 | 1.02 ± 0.012 | 1.01 ± 0.044 |
| UniProt P61981 | 0.959 ± 0.052 | 1.05 ± 0.081 | 0.933 ± 0.056 | 0.976 ± 0.05 | 0.954 ± 0.053 | 0.921 ± 0.052 |
| UniProt P61088 | 1.01 ± 0.026 | 0.977 ± 0.032 | 0.987 ± 0.079 | 1.03 ± 0.068 | 1.06 ± 0.061 | 1.05 ± 0.059 |
| GABPA (UniProt Q06546) | 0.985 ± 0.013 | 0.943 ± 0.037 | 0.95 ± 0.013 | 0.9583 ± 0.0071 | 0.9365 ± 0.0039 | 0.933 ± 0.023 |
| UniProt P56159 and related entries | 1.01 ± 0.013 | 1.03 ± 0.061 | 0.982 ± 0.037 | 0.993 ± 0.032 | 0.976 ± 0.034 | 0.981 ± 0.014 |
| UniProt P67870 and related entries | 1.01 ± 0.035 | 1.02 ± 0.058 | 1.01 ± 0.031 | 0.99 ± 0.046 | 0.993 ± 0.046 | 0.986 ± 0.042 |
| UniProt P63010 and related entries | 0.986 ± 0.029 | 0.957 ± 0.03 | 0.957 ± 0.034 | 1.04 ± 0.016 | 1.03 ± 0.036 | 1.02 ± 0.068 |
| NAA20 (UniProt P61599) | 0.999 ± 0.039 | 0.9558 ± 0.0052 | 0.991 ± 0.022 | 0.973 ± 0.01 | 1.026 ± 0.0096 | 0.9551 ± 0.001 |
| UniProt Q06609 and related entries | 0.997 ± 0.024 | 1.03 ± 0.09 | 1 ± 0.031 | 1 ± 0.021 | 0.997 ± 0.051 | 1.01 ± 0.055 |
| UniProt P62306 | 1.01 ± 0.037 | 1.08 ± 0.083 | 1.03 ± 0.045 | 1.1 ± 0.042 | 1.14 ± 0.049 | 1.16 ± 0.058 |
| EIF6 (UniProt P56537) | 1.02 ± 0.036 | 0.959 ± 0.041 | 1.03 ± 0.015 | 0.997 ± 0.014 | 1.01 ± 0.038 | 0.978 ± 0.021 |

Single entries from the entries so far.
NP40-soluble protein abundance (concentration: 1mM) with UniProt Q00978 and related entries reads 0.995 ± 0.013
NP40-soluble protein abundance (concentration: 6mM) with UniProt P84090 reads 1.11 ± 0.023
